Assay results: US10363261B2, “Enolase inhibitors and methods of treatment therewith” (Board of Regents, The University of Texas System, priority 2015, dated 2019)
For at least one compound, name, drawing or mass did not settle the structure.

Experiments:
[1] = system: ENO1 deleted Glioblastoma cell line, Gli56; test: Intracranial Gli56 glioblastoma tumors tracked by T2 MRI; assay type: in vivo, NUDE immunocompromised mice; conditions: Pom-SF2312 at 4 MPK
Excerpt: Animals (NUDE immunocompromised mice) injected intracranially with the ENO1 deleted Glioblastoma cell line, Gli56. After 30 days, tumors became readily visible by MRI (T2, the white hyperintense regions are tumor on the background grey of the normal brain). In the absence of treatment, Gli56 tumors grow continuously (Mouse #1, and Mouse #3, from Day 30 to Day 40). […] The tumors have not recurred after discontinuation of treatment.

[2] = Stability in cell culture media by proton-decoupled 31P NMR

CC(C)(C)C(=O)OCOP(=O)(OCOC(=O)C(C)(C)C)C1CC(O)N(O)C1=O (stereo not drawn) [Pom-SF2312, (((1,5-dihydroxy-2-oxopyrrolidin-3-yl)phosphoryl)bis(oxy))bis(methylene)bis(2,2-dimethylpropanoate)]
effect on Gli56 intracranial tumor growth [1]: did not significantly slow tumor growth | further hydrolysis to the free phosphonate (SF2312, Hex) ([2]; 72 hours of incubation): did not proceed further | time for half of the compound to hydrolyze in media ([2]; DMEM with 10% fetal bovine serum): ≤ 12 h
